Assay: general procedure: solution-phase peptide synthesis; iso-butyl chloroformate / N-methyl morpholine (mixed anhydride)

| Substance | step yield (coupling step) | step yield (late stage modification step) |
| --- | --- | --- |
| Ac--Tyr--Val--Ala--Asp(Bzl)--CONH--CH2 CH2 Ph | 93% | – |
| Ac--Tyr--Val--Ala--Asp--CONH--CH2 CH2 Ph | – | 57% |

Source: patent publication US6235929A (Georgia Tech Research Corporation, priority 1996, dated 2001)
